Earlier results, collected in US9968620B2, “Methods of treating lymphoma using thienotriazolodiazepine compounds” (ONCOETHIX GmbH, priority 2014, dated 2018).
At least one compound was matched to its structure with a doubt left.

How the values were obtained:
MOLT-4 cells = settings: cited from earlier work
Reh cells = settings: cited from earlier work

For `Cc1[nH]c2ccccc2c1CCNCc1ccc(/C=C/C(=O)NO)cc1` [Panobinostat], which IC50 (MOLT-4 cells) is on record?
Its IC50 is 5 nM.

What about the IC50 (Reh cells) of the same molecule?
The IC50 was 20 nM.
